Assay [1] concerns the target T1, JUNB (aa 148-347) with C-terminal 6-histidine tag (human) (UniProt P17275).
T1 sequence: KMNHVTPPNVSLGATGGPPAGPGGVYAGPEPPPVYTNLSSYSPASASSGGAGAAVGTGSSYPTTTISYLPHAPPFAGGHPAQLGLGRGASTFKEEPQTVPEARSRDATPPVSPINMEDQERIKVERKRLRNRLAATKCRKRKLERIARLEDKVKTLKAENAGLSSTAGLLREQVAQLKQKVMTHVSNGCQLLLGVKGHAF
In words: pull-down; co-purification: mCherry-BATFx (no affinity tag) co-expressed in E. coli with JUNB(148-347)-6His, purified on Ni-NTA agarose; mCherry colour as indicator of BATFx.

Assay [2] addresses T2, BATF3–JUNB hetero-dimer (human) (UniProt Q9NR55+P17275).
T2 sequence 1: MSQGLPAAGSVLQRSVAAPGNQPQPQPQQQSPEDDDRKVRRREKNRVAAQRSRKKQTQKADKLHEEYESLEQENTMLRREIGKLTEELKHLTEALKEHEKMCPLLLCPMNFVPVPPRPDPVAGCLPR
T2 sequence 2: T1 sequence
The assay is described as follows: native gel or EMSA; complex formed on a dsDNA library: 100 nM BATFx-JUNB heterodimer, 150 nM IRF protein, 1 uM dsDNA library in 1x NEB Cutsmart buffer (pH 7.9) with 10% glycerol, 30 min on ice; native 9% PAGE in Tris/Glycine at 4 °C; both purified. Background: A gel shift assay detects complexes by their altered migration in electrophoresis.

These are yes or no findings as the source states them, for the method shown. For some of these results: Binding seen in cells or lysates may run through a third protein. Some entries that bind do so weakly or less than the wild type. For some of these results: Where a sequence is shown, tags or fusion partners need not be part of it.

This passage reports binding results from article PMC5869772, “Quantitative profiling of BATF family proteins/JUNB/IRF hetero-trimers using Spec-seq” (BMC Molecular Biology, 2018).

B1: mCherry-BATF2 (aa 1-142, N-terminal bZIP domain of human BATF2) (domain or fragment, UniProt Q8N1L9 1-142)
chain: MHLCGGNGLLTQTDPKEQQRQLKKQKNRAAAQRSRQKHTDKADALHQQHESLEKDNLALRKEIQSLQAELAWWSRTLHVHERLCPMDCASCSAPGLLGCWDQAEGLLGPGPQGQHGCREQLELFQTPGSCYPAQPLSPGPQP
On to B1, for which the binding entry in assay [1] is recorded as “binds”.

B2: mCherry-BATF3 (full length human BATF3 with N-terminal mCherry and TEV site) (protein, UniProt Q9NR55 1-127)
chain: T2 sequence 1
For the molecule B2, the binding result in assay [1] was “binds”.

B3: IRF4 (full length human) (protein, UniProt Q15306 1-451)
chain: MNLEGGGRGGEFGMSAVSCGNGKLRQWLIDQIDSGKYPGLVWENEEKSIFRIPWKHAGKQDYNREEDAALFKAWALFKGKFREGIDKPDPPTWKTRLRCALNKSNDFEELVERSQLDISDPYKVYRIVPEGAKKGAKQLTLEDPQMSMSHPYTMTTPYPSLPAQQVHNYMMPPLDRSWRDYVPDQPHPEIPYQCPMTFGPRGHHWQGPACENGCQVTGTFYACAPPESQAPGVPTEPSIRSAEALAFSDCRLHICLYYREILVKELTTSSPEGCRISHGHTYDASNLDQVLFPYPEDNGQRKNIEKLLSHLERGVVLWMAPDGLYAKRLCQSRIYWDGPLALCNDRPNKLERDQTCKLFDTQQFLSELQAFAHHGRSLPRFQVTLCFGEEFPDPQRQRKLITAHVEPLLARQLYYFAQQNSGHFLRGYDLPEHISNPEDYHRSIRHSSIQE
Turning to B3, the binding entry in assay [2] was “binds”.

B4: mCherry-BATF (full length human BATF with N-terminal mCherry and TEV site) (protein, UniProt Q16520 1-125)
chain: MPHSSDSSDSSFSRSPPPGKQDSSDDVRRVQRREKNRIAAQKSRQRQTQKADTLHLESEDLEKQNAALRKEIKQLTEELKYFTSVLNSHEPLCSVLAASTPSPPEVVYSAHAFHQPHVSSPRFQP
With B4, the binding entry in assay [1] is recorded as “binds”.
